Molecules are shown by their SMILES. Counter-ions that a name gives are not always drawn. Some of the results follow. Single values are uncertain, as repeats are few or missing.

The subject of this assay is Drosophila melanogaster DPAGT1 (Alg7) RNAi eye model. In words: eye size Z-score vs DMSO-treated DPAGT1 model flies; higher = larger eye (suppression of DPAGT1 phenotype). The following applies: 5 uM.

With `c1coc(CNc2ncnc3[nH]cnc23)c1` [Kinetin], the “eye size Z-score” value is 0.21.
On the same count and under the same terms, for `C[C@]12CCC3=C4CCC(=O)C=C4CC[C@H]3[C@@H]1CC[C@@]2(O)CC#N` [Dienogest] the value was 0.33; for `CCCCc1ccc2[nH]c(NC(=O)OC)nc2c1` [Parbendazole], 0.57; for `O=c1oc2cc(O)ccc2s1` [Tioxolone], 1.
Still for that read-out and setting: the result for `C/C(=C\C(=O)OCCCCCCCCC(=O)O)C[C@@H]1OC[C@H](C[C@@H]2O[C@H]2[C@@H](C)[C@H](C)O)[C@@H](O)[C@H]1O` [Mupirocin] reads 0.14.
On to `CCc1cccc(CC)c1NC(=O)CN(CC(=O)O)CC(=O)O` [Etifenin], for which the “eye size Z-score” value was -0.08.
Regarding `CN/C(=N\CCSCc1nc[nH]c1C)NC#N` [Cimetidine], the “eye size Z-score” value is 0.96.
Take `O=C(O)c1cc(/N=N/c2ccc(S(=O)(=O)Nc3ccccn3)cc2)ccc1O` [Sulfasalazine]: the “eye size Z-score” value came to 1.05.
On to `CN1CCCN=C1/C=C/c1cccc(O)c1` [Oxantel pamoate], for which the “eye size Z-score” value was -0.24.
On the same count and under the same terms, for `CC(N)CCCC(C)(C)O` (stereo unspecified) [Heptaminol hydrochloride] the value was 1.54; for `C[C@@H](O[C@H]1OCCN(Cc2n[nH]c(=O)[nH]2)[C@H]1c1ccc(F)cc1)c1cc(C(F)(F)F)cc(C(F)(F)F)c1` [Aprepitant], 0.67.
For `Cc1cn(-c2cc(NC(=O)c3ccc(C)c(Nc4nccc(-c5cccnc5)n4)c3)cc(C(F)(F)F)c2)cn1` [Nilotinib], the “eye size Z-score” value amounted to 0.32.
Consider `CC1(C)S[C@@H]2[C@H](NC(=O)C3(N)CCCCC3)C(=O)N2[C@H]1C(=O)O` [Cyclacillin], for which the “eye size Z-score” value was -0.27.
The same measure, in the same setting: the result for `CC=CC1=C(C(=O)O)N2C(=O)[C@@H](NC(=O)[C@H](N)c3ccc(O)cc3)[C@H]2SC1` [Cefprozil] reads -0.8.
Same read-out and setting: for `Cc1cc2c(s1)Nc1ccccc1N=C2N1CCN(C)CC1` [Olanzapine] the value was -0.27; for `Cc1c(O)c(=O)n(-c2ccccc2)n1C` [Antipyrine, 4-hydroxy], 1.51.
On the same count and under the same terms, the result for `CC(C)OC(=O)C(C)(C)Oc1ccc(C(=O)c2ccc(Cl)cc2)cc1` [Fenofibrate] reads -0.16.
As to `NC[C@@H]1O[C@@H](O[C@H]2[C@H](O)[C@@H](O[C@H]3O[C@H](CO)[C@@H](O)[C@H](N)[C@H]3O)[C@H](N)C[C@@H]2N)[C@@H](O)[C@H](O)[C@H]1O` [Kanamycin A sulfate], the “eye size Z-score” value was -0.56.
Same read-out and setting: for `COC(=O)C1=C(C#N)NC(C)=C(C(=O)OC(C)C)C1c1cccc([N+](=O)[O-])c1` (stereo unspecified) [Nilvadipine] the value was -0.35.
As for `CC1CC(OC(=O)c2ccccc2O)CC(C)(C)C1` (stereo unspecified) [Homosalate], the “eye size Z-score” value was 1.17.
With `C[C@H](CCC(=O)O)[C@H]1CC[C@H]2[C@@H]3[C@@H](O)C[C@@H]4C[C@H](O)CC[C@]4(C)[C@H]3CC[C@]12C` [Urosiol], the “eye size Z-score” value (female) turned out to be 0.25.

The record behind these values is the supplement of paper PMC11542785.
